# In all, about 320,000 compounds went through this assay and about 22,000 (6.9%) were called active. This list was built around the results that the source calls inconclusive (neither active nor inactive); the mix of calls is not that of the screen. Calls follow the shape of the dose curve; as a rule, active = well fitted inhibition curve with a large enough effect; inconclusive = small, poorly fitted or top-dose-only effect, or another doubt; inactive = no such curve, though single readings can be large or run the other way. A potency beside an inconclusive call is a rough fit, not a confirmed value.
# Assay: Primary qHTS for delayed death inhibitors of the malarial parasite plastid, 96 hour incubation
# Details: P. falciparum luciferase reporter growth; series mostly up to 28.7 µM
# Summary of the method: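 Two-generation exposure (96 h) targets delayed-death phenotype. Reporter parasites carrying integrated firefly luciferase, in red cells at 2% hematocrit and 0.05% parasitemia final, kept at 37 C, 5% CO2; luminescence loss indicates inhibition.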
# Potency is read from the fitted curve at half-maximal effect.
row,SMILES,Potency
1,COc1cc(NS(=O)(=O)c2ccc(NC(=S)NC(=O)c3sc4cc(F)ccc4c3Cl)cc2)nc(OC)n1,"inconclusive: 0.657 µM [inhibitor, full curve]"
2,COC(=O)c1c(C)[nH]c(-c2csc(N)n2)c1C,"inconclusive: 0.117 µM [inhibitor, partial curve, poor fit]"
3,CCSc1nnc(NC(=O)c2ccccc2C)s1,"inconclusive: 10.4 µM [inhibitor, single point]"
4,CN(C)S(=O)(=O)c1cccc(NC(=O)c2cc(-c3cccs3)nc3ccccc23)c1,"inconclusive: 18.5 µM [inhibitor, single point]"
5,Cc1cc(C)c(NC(=O)CCCSc2nnc(N)s2)c(C)c1,"inconclusive: 0.828 µM [inhibitor, full curve]"
6,C=CCNCCOc1c(C)cc(C)cc1Cl,inactive
7,COC(=O)/C(=C1/Oc2cc(C)oc(=O)c2S1)C(F)(F)F,"inconclusive: 10.4 µM [inhibitor, partial curve, poor fit]"
8,O=c1c(Cc2ccc(Cl)cc2Cl)c(O)ccn1CCCN1CCOCC1,inactive
9,O=C(COc1ccc(-c2ccccc2)cc1)N1CCN(S(=O)(=O)Cc2ccccc2)CC1,inactive
10,COc1ccc(-c2cn(CCC(=O)NCc3ccc(C)cc3)c(-c3ccncc3)n2)cc1,"inconclusive: 0.165 µM [inhibitor, full curve, poor fit]"
11,Cc1nn(-c2ncc(C(F)(F)F)cc2Cl)c(=O)n1-c1ccc(F)cc1,"inconclusive: 1.47 µM [inhibitor, partial curve, poor fit]"
12,COc1ccc(C(=O)Nc2nncs2)c(OC)c1,"inconclusive: 3.7 µM [inhibitor, full curve, poor fit]"
13,NNC(=O)c1oc2nc(-c3ccccc3)cc(-c3ccco3)c2c1N,"inconclusive: 18.5 µM [inhibitor, single point]"
14,O=C(Nc1ccc(CN2CCCCC2)cc1)c1sc2ccccc2c1Cl,"inconclusive: 18.5 µM [inhibitor, single point]"
15,CCCOc1ccc(OCCNC2CCCC2)cc1,"inconclusive: 0.0657 µM [inhibitor, full curve, poor fit]"
16,Cc1ccc(C)c(OCC(O)CN2CCC(Cc3ccccc3)CC2)c1 (centres undefined),"inconclusive: 5.22 µM [inhibitor, partial curve]"
17,Cn1c(SCc2ccc(C(C)(C)C)cc2)nnc1C1COc2ccccc2O1 (centres undefined),"inconclusive: 11.7 µM [inhibitor, single point]"
18,CN(C)CCCNc1ncnc2c1cnn2Cc1ccccc1Cl,inactive
19,COc1ccc(-c2nc(NC(=O)CCNC(=O)c3ccco3)sc2C)cc1,"inconclusive: 13.1 µM [inhibitor, single point]"

# As entered above:
# Potency, COc1ccc(-c2cn(CCC(=O)NCc3ccc(C)cc3)c(-c3ccncc3)n2)cc1 is entered as inconclusive: 0.165 µM [inhibitor, full curve, poor fit]
# Potency, C=CCNCCOc1c(C)cc(C)cc1Cl is entered as inactive
